# Laboratory results as given in ChEMBL document CHEMBL1139291, “Syntheses and opioid receptor binding properties of carboxamido-substituted opioids” (Bioorg Med Chem Lett, 2009).
# Amino acid sequences for entries named in this document (tags omitted).
# UniProt P35372, whole entry: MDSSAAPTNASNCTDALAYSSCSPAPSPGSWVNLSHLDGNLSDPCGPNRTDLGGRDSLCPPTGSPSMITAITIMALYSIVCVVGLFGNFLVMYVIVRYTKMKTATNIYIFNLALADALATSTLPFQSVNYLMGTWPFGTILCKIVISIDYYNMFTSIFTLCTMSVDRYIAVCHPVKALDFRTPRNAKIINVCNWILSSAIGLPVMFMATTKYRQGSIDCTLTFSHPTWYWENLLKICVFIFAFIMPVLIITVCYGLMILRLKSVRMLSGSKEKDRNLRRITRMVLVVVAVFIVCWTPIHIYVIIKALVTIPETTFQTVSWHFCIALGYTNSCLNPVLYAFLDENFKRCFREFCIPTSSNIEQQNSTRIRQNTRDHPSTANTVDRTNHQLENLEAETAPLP
# Columns and labels:
# Mu-type opioid receptor [1] = molecular target: T1, Mu-type opioid receptor (Homo sapiens, UniProt P35372); test: Activity at human cloned mu opioid receptor expressed in CHO cells assessed as inhibition of DAMGO-induced [35S]GTPgammaS binding; assay type: functional, cell-based
# Mu-type opioid receptor [2] = molecular target: T1, Mu-type opioid receptor; test: Activity at human cloned mu opioid receptor expressed in CHO cells by [35S]GTPgammaS binding assay; assay type: functional, cell-based
# [3] = Displacement of [3H]Naltrindole form delta opioid receptor in guinea pig brain; set-up: species or system Cavia porcellus
# How it was run: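 Guinea pig brain membrane protein incubated with 12 concentrations of compound and 0.2 nM [3H]naltrindole in 50 mM Tris–HCl, pH 7.5, with 10 mM MgCl2 and 0.5 mM PMSF, for 3 h at 25 °C. […] Samples filtered onto polyethyleneimine-soaked glass fiber filters, washed, and counted by scintillation. IC50 came from log-probit fit, and Ki = IC50/(1 + [radioligand]/Kd).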
SMILES,IC50 (Mu-type opioid receptor [1]),EC50 (Mu-type opioid receptor [2]),Ki [3]
CC1C2C(=O)c3ccc(C(N)=O)cc3C1(C)CCN2CC1CC1 (stereo not drawn),150 nM,4.2 nM,
CN1CC[C@]23c4c5ccc(O)c4O[C@H]2[C@@H](O)C=C[C@H]3[C@H]1C5 [MORPHINE],,,140 nM
